The structures appear in SMILES notation. The list shows only some results of the screen, not a fair sample: it is rich in T/C values a quarter to a half above the control, in often repeated tests (any T/C) and in doses without a T/C. Other doses and runs of a compound stand elsewhere. T/C: endpoint of the treated group in % of that of the vehicle group. Some doses have a count of surviving animals in place of a T/C: the source files T/C as zero there, which appears to mark a toxic dose or a test without result, not a measured value. Some doses without a T/C left all or most animals alive at the check, yet need not have been tolerated: the source hardly ever lists a survival T/C far under the control, and the zero likely stands for such cases as well. Survivors were counted at the toxicity check, usually on the fifth day, unless a day is given; later deaths do not show. Schedule codes are those of the source, taken here to give the interval after Q, in days (D) or hours (H), and the number of doses after X. Some doses were run more than once; the results are listed from low to high. Where survival is the endpoint, the PubChem record calls one and a half times the control and up active, and a quarter to a half above the control has no call in these data; cut-offs in other NCI protocols can differ. Counts like (3×) stand for listed records that agree.

Our source for the survivor count and T/C values is PubChem BioAssay AID330 (DTP/NCI, 2004).

This experiment relates to P388 leukemia ip, CD2F1 mice, survival T/C. Nature of the experiment: NCI In Vivo Anticancer Drug Screen. Data for tumor model P388 Leukemia (intraperitoneal) in CD2F1 (CDF1) mice. The note with it: T/C endpoint: median survival time, higher T/C = longer survival.
Where [1] appears, read: dose: 200.0 mg/kg/injection, schedule: Q01DX005 (ip), vehicle: Klucel (hydroxypropylcellulose) (HPC).
Where [2] appears, read: dose: 200.0 mg/kg/injection, schedule: Q01DX001 (ip), vehicle: saline with Tween-80.
Setting [3] is: dose: 100.0 mg/kg/injection, schedule: Q04DX003 (ip), vehicle: saline with Tween-80.
The mark [4] stands for this setting: dose: 200.0 mg/kg/injection, schedule: Q04DX003 (ip), vehicle: saline with Tween-80.
Where [5] appears, read: dose: 400.0 mg/kg/injection, schedule: Q04DX003 (ip), vehicle: saline with Tween-80.
Where [6] appears, read: dose: 50.0 mg/kg/injection, schedule: Q01DX009 (ip), vehicle: saline.
[7] abbreviates: dose: 100.0 mg/kg/injection, schedule: Q01DX009 (ip), vehicle: saline.
Setting [8] is: dose: 200.0 mg/kg/injection, schedule: Q01DX009 (ip), vehicle: saline.
Setting [9] is: dose: 100.0 mg/kg/injection, schedule: Q01DX009 (ip), vehicle: Klucel (hydroxypropylcellulose) (HPC).

As to `O=C(CSC(SCC(=O)Nc1ccccc1)c1ccccc1)Nc1ccccc1`, under “dose: 240.0 mg/kg/injection, schedule: Q01DX005 (ip), vehicle: Klucel (hydroxypropylcellulose) (HPC)”, the survivor count is recorded as 6 of 6.

Regarding `COC(=O)C12c3ccccc3C3C(c4ccccc41)C32` (configuration not stated), the survivor count (dose: 400.0 mg/kg/injection, schedule: Q04DX003 (ip), vehicle: saline) is listed as 5 of 6.

Take `c1ccc(OP2(Oc3ccccc3)=NP(Oc3ccccc3)(Oc3ccccc3)=NP(Oc3ccccc3)(Oc3ccccc3)=NP(Oc3ccccc3)(Oc3ccccc3)=N2)cc1`: the survivor count under setting [1] is on record as 6 of 6.

In the case of `CC(=O)O[C@H]1CC[C@@]2(C)C(CC[C@]3(C)C2CC=C2[C@@H]4CC(C)(C)CC[C@]4(C(=O)NCCN(C)C)CCC23C)C1(C)C` (some centres not stated), the survivor count runs as follows: (dose: 120.0 mg/kg/injection, schedule: Q01DX005 (ip), vehicle: saline with Tween-80) 1 of 6; (dose: 240.0 mg/kg/injection, schedule: Q01DX005 (ip), vehicle: saline with Tween-80) 0 of 6.

As for `CCN(CC)Cc1cc(N=Nc2c(O)ccc3c(N=Nc4ccc(O)c(CN(CC)CC)c4)c(O)ccc23)ccc1O`, the T/C under setting [1] is 126 % of control.

Take `FC(F)(F)CO[Te](OCC(F)(F)F)(OCC(F)(F)F)OCC(F)(F)F`: the survivor count reads like this: (dose: 25.0 mg/kg/injection, schedule: Q01DX001 (ip), vehicle: saline with Tween-80) 3 of 6; (dose: 50.0 mg/kg/injection, schedule: Q01DX001 (ip), vehicle: saline with Tween-80) 0 of 6 and 3 of 6; (dose: 100.0 mg/kg/injection, schedule: Q01DX001 (ip), vehicle: saline with Tween-80) 0 of 6; under setting [2], 0 of 6.

As for `Cc1cc[n+](C)c(Cc2ccccc2)c1C`, the survivor count (dose: 50.0 mg/kg/injection, schedule: Q01DX005 (ip), vehicle: Klucel (hydroxypropylcellulose) (HPC)) is 3 of 5; the survivor count (dose: 100.0 mg/kg/injection, schedule: Q01DX005 (ip), vehicle: Klucel (hydroxypropylcellulose) (HPC)) is listed as 0 of 5; the survivor count under setting [1] is given as 0 of 5.

Consider `Cc1[nH]c(C)c(C(=O)OC2CCN(C)CC2)c1C`, for which the survivor count under setting [3] is 0 of 6, the survivor count under setting [4] is reported as 0 of 6 and the survivor count under setting [5] was 0 of 6.

As to `C[N+]1(C)Cc2ccccc2C1`, the survivor count is reported as 2 of 6 under setting [6] and 0 of 6 under setting [7].

Consider `O=C(c1ccccc1)c1ccc[n+](Cc2c(Cl)cccc2Cl)c1`, for which the survivor count under setting [7] is given as 6 of 6 and the survivor count under setting [8] was 0 of 6.

`CC1(C)C2CCC(CN)C1C2` (configuration not stated): where the note is “dose: 100.0 mg/kg/injection, schedule: Q01DX009 (ip), vehicle: other”, the survivor count is 0 of 6.

With `CC(C)NC(=O)OCc1c(COC(=O)NC(C)C)c(Sc2ccccc2)n2c1CCC2`, for the setting “dose: 200.0 mg/kg/injection, schedule: Q01DX005 (ip), vehicle: saline with Tween-80”, the survivor count is reported as 6 of 6.

For the compound `C[n+]1ccc(I)c2ccc(Cl)cc21`, the survivor count under setting [9] was 4 of 6.

Take `O=C(O)CN(CCN1CC(=O)OC(=O)C1)CCN1CC(=O)OC(=O)C1`: under “dose: 240.0 mg/kg/injection, schedule: Q01DX005 (ip), vehicle: saline”, the survivor count is listed as 1 of 6.

On to `NCCCNCCCCNC(=O)C(O)NC(=O)CCCCCCN=C(N)N` (configuration not stated), for which the T/C was 146 % of control (dose: 3.12 mg/kg/injection, schedule: Q01DX005 (ip), vehicle: saline); 146 % of control (dose: 6.25 mg/kg/injection, schedule: Q01DX005 (ip), vehicle: saline); 196, 201, 208 % of control (dose: 6.7 mg/kg/injection, schedule: Q01DX009 (ip), vehicle: other, evaluated on day 30); 198 % of control (dose: 6.7 mg/kg/injection, schedule: Q01DX009 (ip), vehicle: other, evaluated on day 45); 204 % of control (dose: 6.7 mg/kg/injection, schedule: Q01DX009 (ip), vehicle: other, evaluated on day 60); 193, 200, 207, 211 % of control (dose: 6.7 mg/kg/injection, schedule: Q01DX009 (ip), vehicle: saline, evaluated on day 45). Besides, the T/C was 194 and 196 % of control (dose: 6.7 mg/kg/injection, schedule: Q01DX009 (ip), vehicle: saline, evaluated on day 60); 200, 205, 211 % of control (dose: 10.0 mg/kg/injection, schedule: Q01DX009 (ip), vehicle: other, evaluated on day 30); 208 % of control (dose: 10.0 mg/kg/injection, schedule: Q01DX009 (ip), vehicle: other, evaluated on day 45); 205 % of control (dose: 10.0 mg/kg/injection, schedule: Q01DX009 (ip), vehicle: other, evaluated on day 60); 204 (2×), 206, 209 % of control (dose: 10.0 mg/kg/injection, schedule: Q01DX009 (ip), vehicle: saline, evaluated on day 45); 190, 201, 204 % of control (dose: 10.0 mg/kg/injection, schedule: Q01DX009 (ip), vehicle: saline, evaluated on day 60). For the same compound, the T/C reads like this: (dose: 15.0 mg/kg/injection, schedule: Q01DX009 (ip), vehicle: other, evaluated on day 30) 204 (2×) and 214 % of control; (dose: 15.0 mg/kg/injection, schedule: Q01DX009 (ip), vehicle: other, evaluated on day 45) 183 % of control; (dose: 15.0 mg/kg/injection, schedule: Q01DX009 (ip), vehicle: other, evaluated on day 60) 215 % of control; (dose: 15.0 mg/kg/injection, schedule: Q01DX009 (ip), vehicle: saline, evaluated on day 45) 197, 206, 215, 216 % of control; (dose: 15.0 mg/kg/injection, schedule: Q01DX009 (ip), vehicle: saline, evaluated on day 60) 200, 205, 207 % of control; (dose: 22.5 mg/kg/injection, schedule: Q01DX009 (ip), vehicle: other, evaluated on day 30) 204 (2×) and 205 % of control. Besides, the T/C is, setting by setting: (dose: 22.5 mg/kg/injection, schedule: Q01DX009 (ip), vehicle: other, evaluated on day 45) 120 % of control; (dose: 22.5 mg/kg/injection, schedule: Q01DX009 (ip), vehicle: saline, evaluated on day 45) 129, 202, 205, 214 % of control; (dose: 22.5 mg/kg/injection, schedule: Q01DX009 (ip), vehicle: saline, evaluated on day 60) 140, 194, 212 % of control. Moreover, the survivor count by setting is: (dose: 34.0 mg/kg/injection, schedule: Q01DX009 (ip), vehicle: saline) 8 of 10; (dose: 50.0 mg/kg/injection, schedule: Q01DX005 (ip), vehicle: saline) 0 of 6 and 2 of 6; (dose: 100.0 mg/kg/injection, schedule: Q01DX005 (ip), vehicle: saline) 0 of 6.

For the compound `O=C1CCSC(=S)N1N1CCN(N2C(=O)CCSC2=S)CC1`, the survivor count (dose: 400.0 mg/kg/injection, schedule: Q01DX001 (ip), vehicle: Klucel (hydroxypropylcellulose) (HPC)) was 6 of 6.

In the case of `O=C1c2ccccc2C(=O)N1CN1C(=O)c2ccccc2S1(=O)=O`, the survivor count under setting [1] is 6 of 6.

For the compound `CC(=O)Nc1ccc2nc(SC(C)C)sc2c1`, the survivor count is on record as 6 of 6 (dose: 50.0 mg/kg/injection, schedule: Q01DX009 (ip), vehicle: Klucel (hydroxypropylcellulose) (HPC)); 6 of 6 under setting [9]; 6 of 6 (dose: 200.0 mg/kg/injection, schedule: Q01DX009 (ip), vehicle: Klucel (hydroxypropylcellulose) (HPC)).

Consider `c1ccc2c(c1)NCCOCCNc1ccccc1OCCNCCO2`, for which the survivor count is, setting by setting: under setting [2], 6 of 6; (dose: 400.0 mg/kg/injection, schedule: Q01DX001 (ip), vehicle: saline with Tween-80) 0 of 6.

In the case of `CCC[N+]1(CC)CCCCC1`, the survivor count runs as follows: under setting [6], 2 of 6; under setting [7], 0 of 6; under setting [8], 0 of 6.

For the compound `COC(=O)c1c([As](C)C)n[n]([Sn]([CH3])([CH3])[CH3])c1C(=O)OC`, the survivor count is, setting by setting: (dose: 25.0 mg/kg/injection, schedule: Q04DX003 (ip), vehicle: saline) 0 of 6; under setting [3], 0 of 6; under setting [4], 0 of 6; under setting [5], 0 of 6.
